## Percent effect of library compounds

Chains of the proteins cited; added tags and fusions are not shown. Residues count along the entry.
UniProt A4I591, 1-473: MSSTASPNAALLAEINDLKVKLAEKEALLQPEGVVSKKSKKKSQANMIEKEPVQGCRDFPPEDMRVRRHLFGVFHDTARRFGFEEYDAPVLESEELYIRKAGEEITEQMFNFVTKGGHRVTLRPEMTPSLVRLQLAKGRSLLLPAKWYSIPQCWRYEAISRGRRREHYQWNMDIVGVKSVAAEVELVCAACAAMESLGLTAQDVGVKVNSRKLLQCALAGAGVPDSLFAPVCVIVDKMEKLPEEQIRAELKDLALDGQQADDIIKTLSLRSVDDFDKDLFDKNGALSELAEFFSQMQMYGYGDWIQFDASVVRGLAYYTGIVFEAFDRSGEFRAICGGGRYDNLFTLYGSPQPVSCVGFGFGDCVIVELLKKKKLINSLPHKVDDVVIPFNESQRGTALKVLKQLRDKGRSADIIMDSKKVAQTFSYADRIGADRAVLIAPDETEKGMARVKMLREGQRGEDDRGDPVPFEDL

Source: ChEMBL document CHEMBL3988442, “University of Dundee, Small-Polar-MMV Screening Library” (2021).

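Enzyme assay of histidyl-tRNA synthetase; the read-out is not stated. Target: Histidine-tRNA ligase, Leishmania infantum (UniProt A4I591). Concentration: 30 µM. Higher reads as stronger inhibition (inferred: compounds with an IC50 in retests scored well above the rest). The assay is labelled LdHisRS but filed under L. infantum. Size under these conditions: about 69,000 compounds, about 410 of them at 50% or above in at least one test.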

The filed quantity is “Percent Effect” (%). How 0% and 100% were set is not recorded. Most values in the screen are low, and negative values occur. Compounds were drawn at random from those tested, without regard to their results.

SMILES: CCNC(c1ccc(F)cc1)c1cccnc1 (stereo not shown)
effect: -3.614

SMILES: O=C(C1CCCO1)N1CCC(n2cc(-c3ccc(F)cc3)nn2)CC1 (stereo not shown)
effect: 13.95

SMILES: CN1CCC(N(Cc2ccncc2)C(=O)COCC2CCCCO2)CC1 (stereo not shown)
effect: 4

SMILES: Cn1ccnc1CNC(=O)N1CCCC(Cc2nccn2C)C1 (stereo not shown)
effect: 5.769

SMILES: COc1ccc(/C=C/CN2CCC3(CC2)CN(C)C(=O)O3)cc1
effect: 2.151

SMILES: O=C(O)c1ccnc(SCc2ccccc2)c1
effect: 20.41

SMILES: CCn1c(C2CCN(C(=O)c3ccc4sc(C)nc4c3)CC2)n[nH]c1=O
effect: 11.11

SMILES: COc1cccc2c1OCC(C(=O)N1CCC(NS(C)(=O)=O)CC1)C2 (stereo not shown)
effect: 15.2

SMILES: Cc1nnc(N2CCOC(C)(C(=O)N(C)C)C2)c2ccccc12 (stereo not shown)
effect: 8.571

SMILES: O=C(c1ccco1)N1C[C@@H]2OCCN(CCN3CCCC3)[C@@H]2C1
effect: 6.015

SMILES: CCN(CC1CCCO1)C(=O)Nc1cc(C)ccc1S(C)(=O)=O (stereo not shown)
effect: 8.929

SMILES: CCSc1ncc(CN2CCN(c3ccc(C#N)cc3)C(=O)C2)cn1
effect: 6.667

SMILES: CCc1noc(C2CCCCN2C(=O)c2cccnc2)n1 (stereo not shown)
effect: 8.621

SMILES: O=S(=O)(c1cccs1)N1CCCn2cnc(CN3CCCC3)c2C1
effect: 1.887

SMILES: Cc1n[nH]cc1CNC(C(=O)N1CCCCC1)c1ccccc1 (stereo not shown)
effect: 9.244

SMILES: Cc1cccc(CN2CCc3ncnc(-c4ccsc4)c3CC2)n1
effect: 14.71

SMILES: CN(C)C(CNCc1nc(-c2ccsc2)no1)c1ccco1 (stereo not shown)
effect: 2.74

SMILES: CC1CS(=O)(=O)CCN1CCCc1ccc(Cl)cc1 (stereo not shown)
effect: 10.42

SMILES: O=C(CCn1cc(Cl)cn1)N1CCC2(CC1)OCCCC2O (stereo not shown)
effect: 20

SMILES: O=C(CNC(=O)N1CCc2c([nH]c3ccc(Cl)cc23)C1)N1CCOCC1
effect: 1.942

SMILES: Cc1cncc(C(=O)N2C[C@@H]3CN(S(C)(=O)=O)CCO[C@@H]3C2)c1
effect: 15.09

SMILES: CC(C)n1cc(CN2CCCN(C(=O)C3(C)CCOCC3)CC2)cn1
effect: 15.38

SMILES: CN(C)CC(C)(O)CNC(=O)Nc1sc2ccccc2c1Cl (stereo not shown)
effect: 13.7

SMILES: COCCNc1nnc(-c2ccc(C)nc2)s1
effect: 4.255

SMILES: CCOc1ncccc1CNC(=O)CN1CCCCCC1=O
effect: 9.6

SMILES: COCC1CCN(C(=O)c2cn(Cc3ccccc3F)nn2)CC1
effect: 10.26

SMILES: COCCN1C[C@H]2CCN(c3ncccn3)CC[C@H]2S1(=O)=O
effect: 13.89

SMILES: Cc1nc(C(=O)N2CCC(c3nccn3Cc3ccncc3)CC2)cs1
effect: 13.6

SMILES: COc1ccc(-c2nc(C#N)c(N(C)C)o2)cc1S(=O)(=O)N1CCCC1
effect: 14.58

SMILES: CN(C)C(=O)N1CC(C(=O)NCC2CC2)C2(CCOCC2)C1 (stereo not shown)
effect: -2.703

SMILES: N#Cc1cccnc1N1CCCC(CO)(Cc2ccc(F)cc2)C1 (stereo not shown)
effect: 6.061

SMILES: O=C(Cn1nc(-c2ccc(F)cc2)oc1=O)Nc1ccccc1
effect: 5.6

SMILES: O=C(c1cnccn1)N1CCOC2(CCN(Cc3ccsc3)CC2)C1
effect: 15.09

SMILES: O=C(CC1CCCC1)N1CCC2(CCN2Cc2ccc(F)cc2)C1 (stereo not shown)
effect: 23.08

SMILES: Cc1ccc2nc(-c3nc4c([nH]3)CC(C)(C)CNC4=O)cn2c1
effect: 16.81

SMILES: CCN1C(=O)CC(c2cnn(C)c2)C12CCN(C(=O)c1ccc[nH]1)CC2 (stereo not shown)
effect: 30

SMILES: Fc1ccc(CN2CCO[C@H]3[C@H](OCCN4CCCC4)CC[C@@H]32)cc1
effect: 18.87

Some entries from above, unchanged:

{"smiles": "O=C(O)c1ccnc(SCc2ccccc2)c1", "effect": 20.41}
{"smiles": "O=C(c1ccco1)N1C[C@@H]2OCCN(CCN3CCCC3)[C@@H]2C1", "effect": 6.015}
{"smiles": "O=C(C1CCCO1)N1CCC(n2cc(-c3ccc(F)cc3)nn2)CC1", "stereo": "stereo not shown", "effect": 13.95}
{"smiles": "COc1ccc(/C=C/CN2CCC3(CC2)CN(C)C(=O)O3)cc1", "effect": 2.151}